Measurements reported in PubChem BioAssay AID602196 (INSERM, 2012).

- Test: 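Genes whose knock-down alters cisplatin killing of lung cancer cells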
- System: human A549 lung cancer cells
- Reagents: siRNA pair against human genes
- Duration: 48 h transfection before cisplatin; time from cisplatin to read-out not stated
- Treatment: cisplatin at a dose killing half of control-siRNA cells; exact dose and duration not given
- Measurement: 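Cisplatin cell death as a shift from the 50% death seen with control siRNA; siRNAs toxic or growth-blocking alone scored 0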
- Scale: two-siRNA summed score (-2 to +2): higher = both siRNAs protect from cisplatin killing; -2 means both sensitise
- Hit rule: 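siRNAs harmful alone (LDH or WST-1) get 0; others get +1 for less and -1 for more cisplatin killing; genes are active when the two siRNAs give the same sign, summing to ±2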
- Calls: active = both siRNAs shift cisplatin killing the same way; inactive = no consistent shift, or siRNA harmful alone
Here is a random part of about 23,000 reagents. 455 of them (2%) were called active. 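Active includes both protection and sensitisation; some change values fall well beyond the stated -50 to +50 range.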 Entries without a mark were called inactive. Reagents against one gene are numbered here. Not all columns of the deposit are shown. Reagent sequences are not shown. Not stated in the record: the amount of reagent.

two-siRNA summed score (-2 to +2), by target gene and reagent
LINC02870: #1 0
DUSP14: #1 0
PPP1R13B: #1 -1
KCTD11: #1 0
LOC441121: #1 1
LOC388526: #1 0
KIAA0825: #1 0; #2 1
OR4F29: #1 0
LOC440869: #1 0
EIF2AK3: #1 1
SPATA3: #1 0
CDC42EP5: #1 0

Reprinted from the listing (3 entries):
two-siRNA summed score (-2 to +2), by target gene and reagent
LOC388526: #1 0
KIAA0825: #1 0; #2 1

The list goes on:
two-siRNA summed score (-2 to +2), by target gene and reagent
RIOK3: #1 1
LOC402123: #1 2 (active)
MAP3K14: #1 1
UBE2NL: #1 0
ZNF12: #1 1
PPIF: #1 0
CTTN: #1 -1
COX7A2L: #1 0
CCT2: #1 -1
LOC440137: #1 0
